# Assay results from the supplement of paper PMC8975748.
# Structures can show the parent of a compound that is named as a salt. ± gives the standard deviation of the averaged measurements. The list shows a part of the results. These are raw signals, not scaled to a control.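 A single yeast strain with four plasmids, each encoding a fluorescent protein and an amino-acid or uracil biosynthesis gene, seeds the community. Stochastic plasmid loss yields mixed prototroph and auxotroph subpopulations. Fixed cells were counted via automated confocal fluorescence imaging; DMSO-treated wells were the vehicle reference.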
# Tested on: Saccharomyces cerevisiae BY4741 SeMeCo community
# Assay: imaged cell count per well (cells); higher = more cells
# Details: 10 µM; 24 h; SM minimal medium
# Description: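 Same SeMeCo high-content imaging drug screen: Selleck FDA-approved drugs at 10 µM, 24 h in SM medium, 384-well plates, 3 replicates.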
row,Compound,imaged cell count per well
1,COC(=O)Nc1nc2cc(C(=O)c3ccccc3)ccc2[nH]1 [Mebendazole],17900 ± 6100
2,Cc1nc(=O)c2cc(CN(C)c3ccc(C(=O)N[C@@H](CCC(=O)O)C(=O)O)s3)ccc2[nH]1 [Raltitrexed],27300 ± 2000
3,CCCCCOc1ccccc1/C(=C\SC)n1ccnc1 [Neticonazole Hydrochloride],3970 ± 1400
4,Nc1ccc(S(=O)(=O)Nc2cnc3ccccc3n2)cc1 [Sulfaquinoxaline sodium],25900 ± 4600
5,CC1(C)S[C@@H]2[C@H](NC(=O)C(c3ccccc3)S(=O)(=O)O)C(=O)N2[C@H]1C(=O)O (some centres undefined) [Sulbenicillin Sodium],15500 ± 6600
6,Cc1ccc(Sc2ccccc2N2CCNCC2)c(C)c1,23600 ± 1300
7,COc1ccnc(C[S+]([O-])c2nc3cc(OC(F)F)ccc3[nH]2)c1OC (centres undefined) [Pantoprazole],20400 ± 1200
8,Cc1nnc(SCC2=C(C(=O)O)N3C(=O)[C@@H](NC(=O)Cn4cc(Cl)c(=O)c(Cl)c4)[C@H]3SC2)s1 [Cefazedone],23400 ± 9500
9,CC1(C)S[C@@H]2[C@H](NC(=O)[C@H](NC(=O)N3CCN(S(C)(=O)=O)C3=O)c3ccccc3)C(=O)N2[C@H]1C(=O)O [Mezlocillin Sodium],25200 ± 7000
10,CCCCCNC(=N)N/N=C/c1c[nH]c2ccc(OC)cc12 [Tegaserod Maleate],24000 ± 4500
11,CN1CCN(CCCN2c3ccccc3Sc3ccc(C(F)(F)F)cc32)CC1 [Trifluoperazine 2HCl],27300 ± 8800
12,O=C(c1ccc(F)cc1)C1CCN(CCn2c(=O)[nH]c3ccccc3c2=O)CC1 [Ketanserin],23100 ± 2400
13,CC1=C(C(=O)O)N2C(=O)[C@@H](NC(=O)[C@H](N)C3=CCC=CC3)[C@H]2SC1 [Cephradine monohydrate],23800 ± 4100
14,CO/N=C(\C(=O)N[C@@H]1C(=O)N2C(C(=O)O)=C(CSC(=O)c3ccco3)CS[C@H]12)c1csc(N)n1 [Ceftiofur HCl],19000 ± 4400
15,O=C1c2c(O)ccc(O)c2C(=O)c2c(NCCNCCO)ccc(NCCNCCO)c21 [Mitoxantrone 2HCl],24500 ± 1500
16,C#C[C@]1(O)CC[C@H]2[C@@H]3CCC4=CCCC[C@@H]4[C@H]3CC[C@@]21C [Lynestrenol],22300 ± 5800
17,CC(C)(C)C(=O)C(Oc1ccc(Cl)cc1)n1ccnc1 (centres undefined) [Climbazole],4990 ± 2600

row,Compound,imaged cell count per well
1,Nc1ccc(S(N)(=O)=O)cc1 [Sulfanilamide],25700 ± 2000
2,Cc1ccc(-c2ncc(Cl)cc2-c2ccc(S(C)(=O)=O)cc2)cn1 [Etoricoxib],23800 ± 6400
3,C#CCN[C@@H]1CCc2ccccc21 [Rasagiline Mesylate],21300 ± 2500
4,Cc1c(Nc2ncccc2C(=O)O)cccc1C(F)(F)F [Flunixin Meglumin],22500 ± 2700
5,CN(CCOc1ccc(NS(C)(=O)=O)cc1)CCc1ccc(NS(C)(=O)=O)cc1 [Dofetilide],26100 ± 5100
6,CN(Cc1cnc2nc(N)nc(N)c2n1)c1ccc(C(=O)N[C@@H](CCC(=O)O)C(=O)O)cc1 [Methotrexate],5000 ± 480
7,C#C[C@]1(O)CC[C@H]2[C@@H]3CCC4=CCCC[C@@H]4[C@H]3C(=C)C[C@@]21CC [Desogestrel],25000 ± 8200
8,CCCCOC(=O)c1ccc(O)cc1 [Butylparaben],25500 ± 6100
9,CC[C@@H]1/C=C(\C)C[C@H](C)C[C@H](OC)[C@H]2O[C@@](O)(C(=O)C(=O)N3CCCC[C@H]3C(=O)O[C@H](/C(C)=C/[C@@H]3CC[C@H](Cl)[C@H](OC)C3)[C@H](C)[C@@H](O)CC1=O)[C@H](C)C[C@@H]2OC [Pimecrolimus],31200 ± 4000
10,c1ccc2[nH]c(-c3cscn3)nc2c1 [Thiabendazole],27200 ± 660
11,Clc1ccc2c(N3CCN(CCCN4CCN(c5ccnc6cc(Cl)ccc56)CC4)CC3)ccnc2c1 [Piperaquine phosphate],17700 ± 2000
12,O=C(c1ccccc1)c1ccc2n1CCC2C(=O)O (centres undefined) [Ketorolac tromethamine salt],26700 ± 1900
13,CC(=O)NS(=O)(=O)c1ccc(N)cc1 [Sulfacetamide Sodium],26600 ± 9800
14,COc1ccccc1OCC(O)CN1CCN(CC(=O)Nc2c(C)cccc2C)CC1 (centres undefined) [Ranolazine 2HCl],26400 ± 5300
15,OB1OCc2cc(F)ccc21 [Tavaborole (AN-2690)],603 ± 180
16,COc1ccc(NS(=O)(=O)c2ccc(N)cc2)nn1 [Sulfamethoxypyridazine],25400 ± 14000
17,CC/C(=C(\c1ccccc1)c1ccc(OCCN(C)C)cc1)c1ccccc1 [Tamoxifen Citrate],32100 ± 3600

# Quoted from the listing:
# For imaged cell count per well, COc1ccccc1OCC(O)CN1CCN(CC(=O)Nc2c(C)cccc2C)CC1 (centres undefined) [Ranolazine 2HCl] reads 26400 ± 5300
# For imaged cell count per well, CCCCOC(=O)c1ccc(O)cc1 [Butylparaben] reads 25500 ± 6100
